Laboratory results as given in PubChem BioAssay AID504834 (National Center for Advancing Translational Sciences (NCATS), 2011).
Out of some 320,000 compounds screened, about 22,000 (6.9%) were called active. Inconclusive means that the source gave no clear call. Such entries were picked first, then a sample of the others. The call rests on the fitted dose curve; in most records, active means well fitted inhibition curve with a large enough effect; inconclusive means small, poorly fitted or top-dose-only effect, or another doubt; inactive means no such curve, though single readings can be large or run the other way. Potencies beside an inconclusive call are fits to weak or partial responses and may not hold up.

assay: Primary qHTS for delayed death inhibitors of the malarial parasite plastid, 96 hour incubation; settings: P. falciparum luciferase reporter growth; series mostly up to 28.7 µM; activity change, negative = inhibition: at the top concentration
Procedure, shortened: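 Cell-based qHTS: luciferase-tagged P. falciparum in erythrocytes (2% hematocrit, 0.05% parasitemia final) incubated with compounds for 96 hours, 37 C, 5% CO2; luciferase detection reagent then added and luminescence measured.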
On the % scale 0 is the no-effect control and ±100 the full control effect; potency means the concentration at half of the fitted maximal effect.

Compound | Potency | activity change, negative = inhibition
CC(Cc1cccs1)N(Cc1ccc(Cl)cc1)C(=O)c1ccncc1 (stereo not drawn) | active: 13.1 µM | 
COc1cc(S(=O)(=O)N2CCOCC2)ccc1NC(=O)COC(=O)C12CC3CC(CC(C3)C1)C2 | inconclusive: 13.1 µM [inhibitor, partial curve, poor fit] | 
CCN1CCN(c2ccc(S(=O)(=O)N3CCCCC3)cc2NC(=O)/C=C/c2ccc(F)cc2)CC1 | inconclusive: 10.4 µM [inhibitor, single point] | 
COC(=O)c1ccc(COc2ccccc2/C=N/NS(=O)(=O)c2ccc(C)cc2)cc1 | inconclusive: 3.7 µM [inhibitor, single point] | 
O=C(Nc1ccncc1)c1ccc2c(c1)C(=O)N(CC1CCCO1)C2=O (stereo not drawn) |  | inactive: 16.6%
O=C(N/N=C/C=C/c1ccco1)/C(=C/c1ccccc1)NC(=O)c1ccccc1 | inconclusive: 10.4 µM [inhibitor, single point] | 
CC(C)N(CC#CC(O)(c1ccccc1)c1ccccc1)CCO | active: 2.33 µM | 
COc1ccccc1Cn1c(SCC(=O)C(C)(C)C)nc2cc(C(=O)N3CCC4(CC3)OCCO4)ccc2c1=O | inconclusive: 18.5 µM [inhibitor, single point] | 
CC1=C(C)C(O)N(Cc2ccccc2)C1=O (stereo not drawn) | inconclusive: 10.4 µM [inhibitor, single point] | 
Cc1ccc(N2C(=O)CC(N(CCc3ccccc3)C(=S)Nc3ccc(N(C)C)cc3)C2=O)cc1 (stereo not drawn) | inconclusive: 18.5 µM [inhibitor, single point] | 
COc1cc([N+](=O)[O-])c(C(=O)N2CCOCC2)c([N+](=O)[O-])c1 | inconclusive: 18.5 µM [inhibitor, single point] | 
CCOC(=O)C1=C(CSc2nc(-c3ccccc3)ccc2C#N)OC(N)=C(C#N)C1c1ccc(OC)cc1 (stereo not drawn) | inconclusive: 3.7 µM [inhibitor, partial curve, poor fit] | 
Cc1cc(C(F)(F)F)nc(SCCN2CCOCC2)c1C#N |  | inactive: 12.1%
COc1ccc2c(OC)cc(-c3ccccc3)nc2c1 | inconclusive: 18.5 µM [inhibitor, single point] | 
O=C(CCl)N(Cc1ccccc1)c1ccccc1 | inconclusive: 4.65 µM [inhibitor, partial curve, poor fit] | 
CC(C)(C)NC(=O)c1cc(Cl)ccc1[N+](=O)[O-] | inconclusive: 18.5 µM [inhibitor, single point] | 
CN(C)CCNC(=S)Nc1cccc(Cl)c1 |  | inactive: -9.88%
CCOc1nc2cnccc2n(CC(=O)Nc2c(F)c(F)cc(F)c2F)c1=O | inconclusive: 11.7 µM [inhibitor, single point] | 
CCOC(=O)N1CCN(C(=O)CCc2ccc(S(=O)(=O)NC(C)C)cc2)CC1 | inconclusive: 18.5 µM [inhibitor, single point] | 
CCOc1ccc(-c2c(C(=O)N/N=C/c3ccc(C)s3)nnn2-c2nonc2N)cc1 | inconclusive: 4.65 µM [inhibitor, partial curve] | 
CC(C)(C)c1ccc(C(=O)N2CCN(C(=O)C3CCCCC3)CC2)cc1 | active: 10.4 µM | 
Cc1cccc(/C(N)=N/OC(=O)c2ccc(F)cc2)c1 |  | inactive: 11.6%
COc1ccc(NC(=O)Cn2nnc(C(=O)NCc3ccc(C)cc3)c2N)cc1Cl | inconclusive: 1.65 µM [inhibitor, full curve] | 

Compound | Potency | activity change, negative = inhibition
O=C(NCc1cccs1)C1CCCN(S(=O)(=O)c2cccc3cccnc23)C1 (stereo not drawn) | inconclusive: 18.5 µM [inhibitor, single point] | 
CCCOc1ccc(/C(O)=C2\C(=O)C(=O)N(c3ccccn3)C2c2ccccc2F)cc1C (stereo not drawn) |  | inactive: -0.658%
c1ccc(-c2nc3c(ccc4ccccc43)[nH]2)nc1 |  | inactive: -6.18%
CCc1noc(C)c1C(=O)Nc1cc(C(F)(F)F)ccc1-n1cncn1 | inconclusive: 10.4 µM [inhibitor, single point] | 
O=S(=O)(Cc1ccccc1Cl)NCCc1ccc(F)cc1 |  | inactive: 5.32%
CC1(c2ccc3ccccc3c2)NC(=O)N(CC(=O)N2CCCC(C(F)(F)F)C2)C1=O (stereo not drawn) | inconclusive: 14.7 µM [inhibitor, single point] | 
CCOc1ccc(NC(=O)c2ccc(CSc3nnc(C)s3)cc2)cc1 | inconclusive: 11.7 µM [inhibitor, single point] | 
CCOC(=O)C1CCN(S(=O)(=O)c2cc3c4c(c2)C(C)C(=O)N4CCC3)CC1 (stereo not drawn) | inconclusive: 10.4 µM [inhibitor, single point] | 
COc1ccc(-c2cc(C(=O)O)no2)cc1 |  | inactive: -16.9%
CCOC(=O)N1CCN(C(=O)CS(=O)(=O)c2cn(Cc3ccc(F)cc3)c3ccccc23)CC1 | inconclusive: 14.7 µM [inhibitor, single point] | 
Cc1ccc(Oc2ccc(C(F)(F)F)cc2[N+](=O)[O-])c([N+](=O)[O-])n1 |  | inactive: 38%
O=C(Nc1ccccc1C(=O)NCc1cccnc1)c1ccc(Cl)cc1Cl |  | inactive: -9.99%
CCc1ccc2[nH]c(=O)c(CN(Cc3ccccc3OC)Cc3nnnn3Cc3ccco3)cc2c1 | inconclusive: 8.28 µM [inhibitor, partial curve, poor fit] | 
Cc1cccc(CCNS(=O)(=O)c2ccc3c(c2)NC(=O)C(C)S3)c1 (stereo not drawn) |  | inactive: 94.1%
O=C1C(=O)N(CCCN2CCOCC2)C(c2ccc([N+](=O)[O-])cc2)/C1=C(/O)c1ccc2c(c1)OCO2 (stereo not drawn) | inconclusive: 11.7 µM [inhibitor, single point] | 
O=C(Nc1cc(S(=O)(=O)N2CCOCC2)ccc1N1CCCCC1)c1cc(-c2ccccn2)nc2ccccc12 | inconclusive: 3.7 µM [inhibitor, single point] | 
CCc1[nH]c(C(=O)O)c(C)c1C(=O)OC | inconclusive: 18.5 µM [inhibitor, single point] | 
CCOC(=O)N1CCN(C(=O)c2ccc3nc(C)sc3c2)CC1 | inconclusive: 0.147 µM [inhibitor, full curve, poor fit] | 
Cc1nc(NC(=O)c2ccncc2)sc1C(=O)N(C)C | inconclusive: 2.62 µM [inhibitor, full curve, poor fit] | 
Nc1cc(=O)[nH]c2nnc(SCC(=O)Nc3cccc4ccccc34)n12 | active: 7.38 µM | 
Cc1ccc2[nH]c(O)c(N=Nc3nc4ccccc4s3)c2c1 | inconclusive: 16.5 µM [inhibitor, single point] | 
O=C(/C=C/c1ccc(Cl)cc1Cl)Nc1ccc(CN2CCOCC2)cc1 | inconclusive: 16.5 µM [inhibitor, single point] | 
CCCN(CCC)c1nc(Cl)nc(NCc2ccco2)n1 | inconclusive: 6.57 µM [inhibitor, partial curve, poor fit] | 

Look-ups from above:
CC(Cc1cccs1)N(Cc1ccc(Cl)cc1)C(=O)c1ccncc1 (stereo not drawn) | Potency: active: 13.1 µM
O=S(=O)(Cc1ccccc1Cl)NCCc1ccc(F)cc1 | activity change, negative = inhibition: inactive: 5.32%
CC(C)N(CC#CC(O)(c1ccccc1)c1ccccc1)CCO | Potency: active: 2.33 µM
CCOC(=O)C1CCN(S(=O)(=O)c2cc3c4c(c2)C(C)C(=O)N4CCC3)CC1 (stereo not drawn) | Potency: inconclusive: 10.4 µM [inhibitor, single point]
CCOc1ccc(-c2c(C(=O)N/N=C/c3ccc(C)s3)nnn2-c2nonc2N)cc1 | Potency: inconclusive: 4.65 µM [inhibitor, partial curve]

(listing goes on)

Compound | Potency | activity change, negative = inhibition
C=CCc1cccc(CNc2ccc(S(=O)(=O)Nc3nccnc3OC)cc2)c1O | inconclusive: 11.7 µM [inhibitor, single point] | 
CCN(CC)C(=O)C1CCCN(C/C=C/c2ccccc2)C1 (stereo not drawn) | inconclusive: 18.5 µM [inhibitor, single point] | 
Cc1cc(O)c(CN2CC=C(c3ccccc3)CC2)cc1C(C)C | active: 0.262 µM | 
CCOC(=O)N1CCN(C(=O)/C(=C/c2ccc(Br)cc2)NC(=O)c2ccc(OC)cc2)CC1 | inconclusive: 3.7 µM [inhibitor, partial curve, poor fit] | 
Clc1ccc(COn2c(-c3ccccc3)nc3ccccc32)cc1 | inconclusive: 13.1 µM [inhibitor, single point] | 
CC(C)CCOC(=O)C[N+](C)(C)CCOC1CC2CCC1(C)C2(C)C (stereo not drawn) |  | inactive: 246%
CCOc1ccc(NC(=S)Nc2ccccc2C2(C)CC2)cc1 |  | inactive: -23.1%
Cc1ccc(S(=O)(=O)N2CCOCC2)cc1C(=O)c1nccn1C |  | inactive: -12.8%
COc1ccc(Cc2nc(N)nc(N)n2)cc1 | inconclusive: 1.85 µM [inhibitor, full curve, poor fit] | 
Cc1ccc(-n2nc3c(N4CCC(C(=O)NCc5ccccc5C)CC4)nnc(C)c3c2C)cc1 | inconclusive: 5.22 µM [inhibitor, partial curve, poor fit] | 
CN(CC(=O)Nc1ccccc1Br)C(=O)C(Cc1ccccc1)NC(=O)c1ccccc1 (stereo not drawn) | inconclusive: 18.5 µM [inhibitor, single point] | 
Cc1nn2c(C)nc3sc4c(c3c2nc1=O)CC(C)(C)OC4 | inconclusive: 0.0029 µM [inhibitor, full curve, poor fit] | 
O=C(OCCN=C1NS(=O)(=O)c2ccccc21)c1cccnc1 |  | inactive: 78.8%
COc1ccc(-c2cn3cc(Cl)ccc3n2)cc1OC |  | inactive: 28%
Cc1cccc(OCC(=O)NNC(=O)CCCCC(=O)NNC(=O)COc2cccc(C)c2)c1 | inconclusive: 18.5 µM [inhibitor, single point] | 
Cn1ccnc1C1CCCCN1Cc1nc(Cc2cccc(C(F)(F)F)c2)no1 (stereo not drawn) | inconclusive: 9.28 µM [inhibitor, partial curve, poor fit] | 
CCCn1c(CCC(=O)O)nc2cc(S(=O)(=O)N(CC)CC)ccc21 |  | inactive: -11.7%
CC1(C)CC(NC(=O)c2sc3cc(Cl)ccc3c2Cl)CC(C)(C)N1 |  | inactive: -43.5%
COc1ccc(/C=C(/CC(=O)Nc2ccccc2)c2nc3ccccc3s2)cc1 | inconclusive: 18.5 µM [inhibitor, single point] | 
COC(=O)c1[nH]c(C)c(/C(O)=C2\C(=O)C(=O)N(CCN3CCOCC3)C2c2cccnc2)c1C (stereo not drawn) | inconclusive: 0.117 µM [inhibitor, full curve, poor fit] | 
COc1ccccc1N1CC(C(=O)Nc2ccccc2N2CCCC2)CC1=O (stereo not drawn) |  | inactive: 15.3%
CCN(CC)C(=O)c1sc(NC(=O)c2cccnc2)c(C(=O)OC)c1C | active: 2.94 µM | 
